Assay: Two-step staining procedure, visual shade assessment of composite resin
Conditions: molecule used for first priming step before adding Philoxine B and Brilliant Blue

Row | SMILES | visual change in shade of composite resin
1 | CCOC(=O)CC(C)C [Ethyl Isovalerate, ethyl isovalerate] | no changes were observed
2 | CCOC(=O)C(C)O (centres unmarked) [Ethyl Lactate, ethyl lactate] | no changes were observed
